{
  "sequences": {"note": "Amino acid sequences for entries named in this document (tags omitted). A change or cut given only in a name is not applied to a line headed by its entry.", "UniProt P51450": "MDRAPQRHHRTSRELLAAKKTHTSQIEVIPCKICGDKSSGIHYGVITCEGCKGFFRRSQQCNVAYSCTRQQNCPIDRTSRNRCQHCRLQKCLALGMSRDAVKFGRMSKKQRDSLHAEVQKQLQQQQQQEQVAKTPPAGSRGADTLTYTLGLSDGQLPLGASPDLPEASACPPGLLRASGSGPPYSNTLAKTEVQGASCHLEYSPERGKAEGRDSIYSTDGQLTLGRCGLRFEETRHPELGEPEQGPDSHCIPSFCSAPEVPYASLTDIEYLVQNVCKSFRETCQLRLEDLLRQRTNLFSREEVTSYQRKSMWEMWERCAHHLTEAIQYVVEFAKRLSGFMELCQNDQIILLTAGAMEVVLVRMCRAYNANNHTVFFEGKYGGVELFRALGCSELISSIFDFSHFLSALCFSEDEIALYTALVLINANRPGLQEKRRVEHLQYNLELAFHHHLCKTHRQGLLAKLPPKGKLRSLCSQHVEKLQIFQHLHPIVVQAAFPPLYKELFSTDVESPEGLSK"},
  "source": "PubChem BioAssay AID2551",
  "about": "(National Center for Advancing Translational Sciences (NCATS), 2010)",
  "note": "Screen size: about 310,000 compounds; about 17,000 (5.5%) were called active. Inconclusive results, whose numbers are uncertain, are shown with a selection of clear calls. Calls follow the shape of the dose curve; as a rule, active = well fitted inhibition curve with a large enough effect; inconclusive = small, poorly fitted or top-dose-only effect, or effect the other way; inactive = no such curve, though single readings can be large or run the other way. Where the call is inconclusive, the potency comes from a doubtful curve fit. Potency is read from the fitted curve at half-maximal effect.",
  "data": [
    {"target": "Nuclear receptor ROR-gamma (Mus musculus) (UniProt P51450)", "test": "qHTS for inhibitors of ROR gamma transcriptional activity; also: nearly all actives have a fitted effect of over 60% in size", "details": "Drosophila S2 Gal4-RORgamma UAS-luciferase reporter, 20 h; series mostly up to 53.6 µM", "procedure,_shortened": "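Luciferase reporter read in Schneider cells carrying Gal4-RORγ (mouse) and UAS-Photinus luciferase; cells given compound 1 h before 700 uM copper sulfate induction, then incubated 20 h at ambient temperature.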", "values": [
      {"smiles": "O=C(COc1ncnc2scc(-c3ccc(Cl)cc3)c12)NCc1ccco1", "Potency": "inconclusive: 10 µM [activator, partial curve]"},
      {"smiles": "Cc1ccc2cc(CN(Cc3cccs3)Cc3nnnn3CC3CCCO3)c(=O)[nH]c2c1C", "note": "(stereo not drawn)", "Potency": "inconclusive: 11.2 µM [inhibitor, single point]"},
      {"smiles": "CCOc1ccc(N2C(=O)CC(SC(=NC)Nc3ccc4c(c3)OCO4)C2=O)cc1", "note": "(stereo not drawn)", "Potency": "inactive"},
      {"smiles": "CCOC(=O)Cn1nc(C)n(-c2c(C)cccc2C)c1=O", "Potency": "inactive"},
      {"smiles": "Nc1cccc(-c2cnc3ccccc3n2)c1", "Potency": "inactive"},
      {"smiles": "Cc1ccc([N+](=O)[O-])cc1NC(=O)c1ccccc1", "Potency": "inactive"},
      {"smiles": "COC(=O)c1ccc(C(=O)NC(=S)Nc2nc3c(s2)CCCC3)cc1", "Potency": "active: 2.24 µM"},
      {"smiles": "CC(=O)N1CCN(c2ccc(NC(=O)c3cc4ccccc4o3)cc2)CC1", "Potency": "inconclusive: 35.5 µM [activator, single point]"},
      {"smiles": "O=[N+]([O-])c1cccc(-c2cnc3ccccc3n2)c1", "Potency": "inactive"},
      {"smiles": "NNC(=O)CSCc1nc(-c2ccc(Cl)cc2)cs1", "Potency": "inactive"},
      {"smiles": "CN(Cc1ccccc1)C(=O)c1ccc2c(c1)OCO2", "Potency": "inconclusive: 0.178 µM [inhibitor, full curve, poor fit]"},
      {"smiles": "O=C(/C=C/c1cccs1)NC(=S)NNC(=O)Cc1cccs1", "Potency": "active: 11.2 µM"},
      {"smiles": "CCCCCC1(C)NC(=S)N(c2ccccc2)N1", "note": "(stereo not drawn)", "Potency": "inconclusive: 35.5 µM [inhibitor, single point]"},
      {"smiles": "O=C(Nc1ccc(Br)cc1Cl)c1cnccn1", "Potency": "inactive"},
      {"smiles": "c1csc(-c2nc(CN3CCSCC3)cs2)c1", "Potency": "inconclusive: 1.26 µM [inhibitor, partial curve, poor fit]"},
      {"smiles": "CC(C)Cn1c(N)c(C(=O)COC(=O)c2ccc(O)cc2)c(=O)n(C)c1=O", "Potency": "inconclusive: 5.01 µM [activator, single point]"},
      {"smiles": "CC1CCCN(C(=S)NC2CCCC2)C1", "note": "(stereo not drawn)", "Potency": "inconclusive: 35.5 µM [inhibitor, single point]"},
      {"smiles": "O=C(O)CCC(=O)Nc1ccc(Br)cn1", "Potency": "inconclusive: 0.562 µM [inhibitor, full curve]"},
      {"smiles": "CC(=O)c1cccc(NC(=O)c2cccc(S(=O)(=O)N3CCOCC3)c2)c1", "Potency": "inconclusive: 35.5 µM [inhibitor, single point]"},
      {"smiles": "Cn1c(SCc2ccc(Br)cc2)nc2ccccc2c1=O", "Potency": "inconclusive: 7.08 µM [activator, full curve]"},
      {"smiles": "COc1ccc(NC(=O)Cc2c(C)n(C(=O)c3ccc(Cl)cc3)c3ccc(OC)cc23)cc1", "Potency": "inconclusive: 8.91 µM [activator, partial curve]"},
      {"smiles": "CCc1nc(N2CCN(C(=S)NCCCOC)CC2)c2c3c(sc2n1)CCCC3", "Potency": "active: 14.1 µM"},
      {"smiles": "COc1ccc(N2CSC3=C(C#N)C(c4cc(OC)ccc4OC)CC(=O)N3C2)c(OC)c1", "note": "(stereo not drawn)", "Potency": "inconclusive: 20 µM [inhibitor, single point]"},
      {"smiles": "COc1ccccc1C(=O)Nc1nnc(SCC(=O)Nc2ccc3c(c2)oc2ccccc23)s1", "Potency": "inconclusive: 11.2 µM [inhibitor, partial curve]"},
      {"smiles": "O=C(CCC(=O)Nc1nnc(C2CCCCC2)s1)NCc1ccc(F)cc1", "Potency": "inconclusive: 35.5 µM [activator, single point]"},
      {"smiles": "COc1cc(/C=N/n2c(-c3ccc4c(c3)NC(=O)CO4)csc2=Nc2cccc(C)c2)ccc1O", "Potency": "inconclusive: 12.6 µM [inhibitor, single point]"},
      {"smiles": "O=C1NC(c2ccccn2)Nc2sc3c(c21)CCC3", "note": "(stereo not drawn)", "Potency": "active: 14.1 µM"},
      {"smiles": "CCOC(=O)c1c(C)oc2c1c1c(c3ccccc32)OCN(Cc2cccnc2)C1", "Potency": "active: 1.78 µM"},
      {"smiles": "Cc1nc(-c2ccccc2)sc1-c1nnc(C2CC2)o1", "Potency": "inactive"},
      {"smiles": "O=C(c1ccccc1)c1cc(Cl)ccc1N1C(=O)C=CC1=O", "Potency": "inconclusive: 15.8 µM [inhibitor, single point]"},
      {"smiles": "COC(=O)C(CCCCNC(=O)OCc1ccccc1)NC(=O)CN", "note": "(stereo not drawn)", "Potency": "inactive"},
      {"smiles": "Cc1noc(C)c1C(=O)N1CCC(C(=O)c2ccc(F)cc2F)CC1", "Potency": "inactive"},
      {"smiles": "Cc1ccc(-c2cc3ccccc3nc2N)cc1", "Potency": "inconclusive: 35.5 µM [activator, single point]"},
      {"smiles": "CC(C)c1ccc(C2=C(O)c3ccccc3C(=O)C2=O)cc1", "Potency": "inconclusive: 35.5 µM [inhibitor, single point]"},
      {"smiles": "O=[N+]([O-])c1ccc2c(c1)C(N1CCOCC1)/C(=C/COc1ccc(Cl)cc1Cl)O2", "note": "(stereo not drawn)", "Potency": "inconclusive: 35.5 µM [activator, single point]"},
      {"smiles": "O=C(COc1cccc(Br)c1)NN=C1c2ccccc2-c2ccccc21", "Potency": "active: 20 µM"},
      {"smiles": "Cc1ccc(C(=O)NCCC(=O)N2CCC3(CC2)NCCc2[nH]cnc23)cc1C", "Potency": "inactive"},
      {"smiles": "COc1ccccc1CCc1nnc(CCC(=O)NCCCOc2cccnc2)o1", "Potency": "inconclusive: 35.5 µM [activator, single point]"},
      {"smiles": "Cc1ccc(N2C(=O)NC(NC(=O)c3ccc(Cl)cc3)(C(F)(F)F)C2=O)cc1", "note": "(stereo not drawn)", "Potency": "inconclusive: 22.4 µM [activator, single point]"},
      {"smiles": "Cc1cc(C)cc(COn2ccnc2)c1", "Potency": "inconclusive: 11.2 µM [inhibitor, partial curve]"},
      {"smiles": "Cc1nc(C)c(-c2csc(Nc3ccc(S(N)(=O)=O)cc3)n2)s1", "Potency": "inconclusive: 6.31 µM [activator, partial curve]"},
      {"smiles": "Cc1c(N2CCCC2)cc2c(c1NC(=O)c1ccccc1Cl)C(C)(C)CC2(C)C", "Potency": "inconclusive: 11.2 µM [inhibitor, partial curve, poor fit]"},
      {"smiles": "CC(=O)/C=C/c1ccccc1Oc1c(F)c(F)nc(F)c1F", "Potency": "inconclusive: 15.8 µM [inhibitor, single point]"},
      {"smiles": "C/C(=N\\NC(=O)c1ccc(Br)cc1)c1cccc(NC(=O)c2cccnc2)c1", "Potency": "active: 17.8 µM"},
      {"smiles": "COc1ccc(-c2nnnn2C)cc1S(=O)(=O)Nc1ccc(C)cc1C", "Potency": "inactive"},
      {"smiles": "O=C(CSc1cccc[n+]1[O-])c1ccc(-c2ccccc2)cc1", "Potency": "inconclusive: 35.5 µM [inhibitor, single point]"},
      {"smiles": "Cc1ccc(OCc2cc(C(=O)Nc3ccccc3)oc2C)cc1", "Potency": "inactive"},
      {"smiles": "CCCCNc1nc(C)nc2c1nc(-c1ccccc1)n2CC1CCCN1CC", "note": "(stereo not drawn)", "Potency": "inconclusive: 15.8 µM [inhibitor, single point]"},
      {"smiles": "COc1ccc(-c2csc(NC(=O)CSc3nc4ccccc4c(=O)[nH]3)n2)cc1", "Potency": "inconclusive: 35.5 µM [inhibitor, single point]"},
      {"smiles": "CCN1C(=O)/C(=C2/Sc3ccc(OC)cc3N2C)SC1=Nc1cccc(O)c1", "Potency": "inconclusive: 35.5 µM [inhibitor, single point]"},
      {"smiles": "O=C(CN1CCCC1)N/N=C/c1ccc(-c2cccc(Cl)c2)o1", "Potency": "inconclusive: 12.6 µM [inhibitor, single point]"},
      {"smiles": "COc1ccc(NC(=O)C2CCN(c3nc(C)nc4c3CCC4)CC2)cc1", "Potency": "inconclusive: 22.4 µM [activator, single point]"},
      {"smiles": "COc1cc(/C=C2\\SC(=S)N(CC(=O)NC(C)(C)C)C2=O)cc(OC)c1OC", "Potency": "inconclusive: 2.82 µM [inhibitor, partial curve, poor fit]"},
      {"smiles": "COC(=O)CNC(=S)NC(=O)c1ccc(C(C)(C)C)cc1", "Potency": "active: 6.31 µM"},
      {"smiles": "C#CCOCCOCCOCCNc1nc(N2CCN(C(=O)[C@H](Cc3cc4ccccc4[nH]3)n3cc([C@@H](N)CC(C)C)nn3)CC2)nc(N2CCN(C(=O)[C@H](Cc3cc4ccccc4[nH]3)n3cc([C@@H](N)CC(C)C)nn3)CC2)n1", "Potency": "inconclusive: 25.1 µM [inhibitor, single point]"},
      {"smiles": "COc1cc(O)c2c(=O)c(O)c(-c3ccc(O)c(O)c3)oc2c1", "Potency": "inconclusive: 2.24 µM [activator, single point]"},
      {"smiles": "O=C(/C=C/c1ccccn1)c1ccc(Br)cc1O", "Potency": "inactive"},
      {"smiles": "CCOc1ccc(/C=N/NC(=O)c2[nH]c3ccc(C)cc3c2C)cc1", "Potency": "inconclusive: 35.5 µM [inhibitor, single point]"},
      {"smiles": "CN(CC(=O)N1CCN(c2cccc(Cl)c2)CC1)S(=O)(=O)c1cnc[nH]1", "Potency": "inactive"},
      {"smiles": "CCC(=O)NNc1ncnc2ccccc12", "Potency": "inactive"},
      {"smiles": "C/C=C/C=N/NC(=O)c1ccncc1", "Potency": "inconclusive: 15.8 µM [inhibitor, single point]"},
      {"smiles": "Cc1ccc(S(=O)(=O)N(C(=O)c2ccncc2)c2ccc(OC(=O)c3ccncc3)c3ccccc23)c(C)c1", "Potency": "inconclusive: 15.8 µM [inhibitor, single point]"},
      {"smiles": "O=C(Nc1ccc(OC(F)F)cc1)c1ncc(Cl)c(Cl)c1Cl", "Potency": "active: 5.01 µM"},
      {"smiles": "O=C(Nc1nonc1NC(=O)C1CCCCC1)C1CCCCC1", "Potency": "inactive"},
      {"smiles": "Cc1cc(C)nc(-n2nc(C)c3c(C)c(C)c(C)nc32)n1", "Potency": "active: 10 µM"},
      {"smiles": "CC(/C=C/c1ccc2c(c1)OCO2)=N/NC(=O)C1COc2ccccc2O1", "note": "(stereo not drawn)", "Potency": "inconclusive: 35.5 µM [inhibitor, single point]"},
      {"smiles": "Cc1c(OC(C)C(=O)NCc2cccnc2)ccc2c3c(c(=O)oc12)CCCC3", "note": "(stereo not drawn)", "Potency": "inactive"},
      {"smiles": "COc1ccc(NC(=O)C2CCCN(S(=O)(=O)c3ccc4c(c3)CCCN4C(C)=O)C2)cc1Cl", "note": "(stereo not drawn)", "Potency": "inactive"},
      {"smiles": "N=C1C(c2ccccc2)=C(O)CN1c1ccc2c(c1)OCO2", "Potency": "inactive"},
      {"smiles": "O=C(O)c1cc(-c2ccc(/C=C3\\NC(=O)N(c4ccc(Cl)cc4)C3=O)o2)ccc1Cl", "Potency": "inactive"},
      {"smiles": "CCC(=O)Nc1cccc(-c2nnc(-c3cccc(NC(=O)CC)c3)o2)c1", "Potency": "inconclusive: 5.62 µM [activator, full curve, poor fit]"},
      {"smiles": "COC(=O)N/N=C\\c1ccc(-c2cc(Cl)c(Cl)cc2Cl)o1", "Potency": "inconclusive: 22.4 µM [inhibitor, single point]"},
      {"smiles": "CCCSc1nsc(NC(=O)Nc2ccc(F)cc2F)n1", "Potency": "inconclusive: 6.31 µM [activator, single point]"}
    ]}
  ]
}
